From article PMC5725456
Results are given in words; binding and its absence hold for the method and conditions named. In cells and extracts the contact can be indirect. Some results given as binding are weak or reduced against the parent protein; the word gives no strength. Where a sequence is shown, tags or fusion partners need not be part of it.

Molecular target: T1, myc-tagged TRAF6 (wild type), P70196
T1 chain: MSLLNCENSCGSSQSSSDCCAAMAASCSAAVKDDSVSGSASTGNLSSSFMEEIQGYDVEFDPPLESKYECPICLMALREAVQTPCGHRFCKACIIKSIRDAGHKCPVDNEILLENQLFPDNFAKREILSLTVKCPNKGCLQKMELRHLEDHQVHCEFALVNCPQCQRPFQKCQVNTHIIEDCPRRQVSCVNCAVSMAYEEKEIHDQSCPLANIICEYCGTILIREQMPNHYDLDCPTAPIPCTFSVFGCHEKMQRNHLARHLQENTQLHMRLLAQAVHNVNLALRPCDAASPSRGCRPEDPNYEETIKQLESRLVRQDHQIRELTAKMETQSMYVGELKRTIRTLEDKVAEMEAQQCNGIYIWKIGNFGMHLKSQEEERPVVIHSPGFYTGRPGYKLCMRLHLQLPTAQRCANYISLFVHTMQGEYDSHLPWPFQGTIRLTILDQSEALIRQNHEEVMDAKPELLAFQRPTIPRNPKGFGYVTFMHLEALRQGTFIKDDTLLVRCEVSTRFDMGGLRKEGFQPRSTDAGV
Assay: co-IP; HEK293T cells expressing both tagged constructs; immunoprecipitation by HA (or myc) and immunoblot for myc (or HA); in the presence or absence of Mirt2
Conditions: remark: other sources report otherwise

binding: binds
B1: myc-tagged TRAF6 (wild type), P70196 1-530 (protein)
chain: MSLLNCENSCGSSQSSSDCCAAMAASCSAAVKDDSVSGSASTGNLSSSFMEEIQGYDVEFDPPLESKYECPICLMALREAVQTPCGHRFCKACIIKSIRDAGHKCPVDNEILLENQLFPDNFAKREILSLTVKCPNKGCLQKMELRHLEDHQVHCEFALVNCPQCQRPFQKCQVNTHIIEDCPRRQVSCVNCAVSMAYEEKEIHDQSCPLANIICEYCGTILIREQMPNHYDLDCPTAPIPCTFSVFGCHEKMQRNHLARHLQENTQLHMRLLAQAVHNVNLALRPCDAASPSRGCRPEDPNYEETIKQLESRLVRQDHQIRELTAKMETQSMYVGELKRTIRTLEDKVAEMEAQQCNGIYIWKIGNFGMHLKSQEEERPVVIHSPGFYTGRPGYKLCMRLHLQLPTAQRCANYISLFVHTMQGEYDSHLPWPFQGTIRLTILDQSEALIRQNHEEVMDAKPELLAFQRPTIPRNPKGFGYVTFMHLEALRQGTFIKDDTLLVRCEVSTRFDMGGLRKEGFQPRSTDAGV
